We go through 1 substance from publication PMC4422613.

Sequences of proteins named here, by UniProt entry; tags and fusion partners are left off.
UniProt P41917: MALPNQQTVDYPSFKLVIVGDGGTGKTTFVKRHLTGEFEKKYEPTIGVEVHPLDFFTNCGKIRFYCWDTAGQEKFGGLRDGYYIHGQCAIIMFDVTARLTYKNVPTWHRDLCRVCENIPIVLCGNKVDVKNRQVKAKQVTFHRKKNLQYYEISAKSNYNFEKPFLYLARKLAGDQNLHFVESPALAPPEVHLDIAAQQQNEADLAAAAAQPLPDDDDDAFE

The target in the assay is T1, Mm_Bt-HA (Mus musculus) (UniProt Q6ZQE4).
T1 sequence: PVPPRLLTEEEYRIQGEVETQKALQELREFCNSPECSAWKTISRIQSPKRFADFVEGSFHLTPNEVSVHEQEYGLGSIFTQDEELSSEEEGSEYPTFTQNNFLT
Nature of the assay: co-IP; Xenopus embryos co-injected with mRNAs; conditions as in Fig 3; immunoprecipitation against HA, western blot with anti-Myc or anti-HA. (In general: A western blot detects proteins with antibodies after separation by electrophoresis.)

These are yes or no findings as the source states them, for the method shown. In cells and extracts the contact can be indirect. Tags and fused reporters may be left off the sequences shown.

As for “Myc-tagged At_Ran2 (from UniProt P41917 1-221)”, the binding entry is on record as “no binding”.
